# The other results are listed elsewhere or left out.
# By UniProt entry, the sequences of proteins in these tests, tags left out.
# UniProt Q0JBA9, entry or part of it: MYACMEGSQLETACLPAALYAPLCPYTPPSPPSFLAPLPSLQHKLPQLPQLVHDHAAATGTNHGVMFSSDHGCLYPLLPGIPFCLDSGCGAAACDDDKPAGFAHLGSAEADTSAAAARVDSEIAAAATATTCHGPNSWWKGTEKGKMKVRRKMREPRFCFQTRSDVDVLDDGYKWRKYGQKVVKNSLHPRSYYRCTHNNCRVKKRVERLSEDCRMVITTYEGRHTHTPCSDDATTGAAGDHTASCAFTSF
# Molecular target: OsWRKY34 (Oryza sativa, UniProt Q0JBA9 1-250)
# Experiment: protein-binding microarray (RPBM); PBS, 2% BSA, 51.3 ng/ul salmon testes DNA, 50 uM zinc acetate, 200 nM TF, 25 C, 1 h; high values mean tight binding
# Settings: protein: recombinant; tags: N-terminal polyhistidine and DsRed monomer fusion (pET32a); label: CyDye5-dUTP incorporated in the synthesized complementary strand; 3' TTTTT single-stranded linker to array surface; dsDNA, one strand shown
# Method in brief: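 Transcription factors were each fused at the N-terminus to a polyhistidine tag plus DsRed and expressed in E. coli BL21-CodonPlus before Ni–NTA purification. Binding to a double-stranded custom Agilent array was carried out with 200 nM protein at 25 °C for 1 h in PBS, 2% BSA, salmon testes DNA and 50 µM zinc acetate. The binding signal is per-feature fluorescence intensity, in arbitrary units, on an Axon 4000B scanner.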
row,Sequence,binding signal
1,TCTCCCCTACTCATTGTCGGCTGACCTGGAGGTTGCGTTGCGGAGTCACCTAGTGCAG,8040 fluorescence intensity (a.u.)
2,CGTTGTCGCCGGCGATCTCTCTTCACCTGCTCCGGCCGCTCGGAGTCACCTAGTGCAG,11900 fluorescence intensity (a.u.)
3,ATATATGAATCCGATTCTGTCTTACCCTCACCTGGAAATACGGAGTCACCTAGTGCAG,8240 fluorescence intensity (a.u.)
4,TTATTAGGTTCTGCTATCTTATGATTCTATTTTGAATTCTCGGAGTCACCTAGTGCAG,8320 fluorescence intensity (a.u.)
5,GGCCGCCCAGCCCGTCGCGCGCTTCCGCCGCGCCGCCGCGCGGAGTCACCTAGTGCAG,9750 fluorescence intensity (a.u.)
6,ATTTTAAGGCAAATGTTTTCATAGCTGGGTCGTTGACGTACGGAGTCACCTAGTGCAG,8360 fluorescence intensity (a.u.)
7,CTCTAACCTAGTTTATCACTACTCATATTTTATTTTATTACGGAGTCACCTAGTGCAG,8940 fluorescence intensity (a.u.)
8,CCCGCCCGCCCCAGCACGCCGCCGCCCGCCGCCCATCGCCCGGAGTCACCTAGTGCAG,8500 fluorescence intensity (a.u.)
9,CTACATGCTGTAGGAATCGCCACCCACTTTTCATCTCTCTCGGAGTCACCTAGTGCAG,8660 fluorescence intensity (a.u.)
10,CAACCAATCAACTTAGGGCATTATTAGCAGTTTAATAGTACGGAGTCACCTAGTGCAG,8090 fluorescence intensity (a.u.)
11,TCACCAAACCTCACGTTTTAGTAGCCGATGTTTGTGTCTTCGGAGTCACCTAGTGCAG,8090 fluorescence intensity (a.u.)
12,ATCCATCTTCCACTGCATCAGCAGCTTCTTTTTCACCCTGCGGAGTCACCTAGTGCAG,8620 fluorescence intensity (a.u.)
13,TTGTTTGTTGACCCCATTTGCCTTGCCCCTATCTAATCTACGGAGTCACCTAGTGCAG,9390 fluorescence intensity (a.u.)
14,AATTCAACGAGTTACACCTTCCACCGTCAACCGAGGAGCTCGGAGTCACCTAGTGCAG,8620 fluorescence intensity (a.u.)
15,TTTACTTCTATCTGCCTTTTCAGCTGTGATGTTTAACAATCGGAGTCACCTAGTGCAG,8380 fluorescence intensity (a.u.)
16,CTTTTTTTTTTTTTGCTCGCTCTCTCGCACCGCATTTATTCGGAGTCACCTAGTGCAG,8640 fluorescence intensity (a.u.)
17,CGGTAGCTATATGGGGATTTTTTTTTTGTTGACTACTAGTCGGAGTCACCTAGTGCAG,8370 fluorescence intensity (a.u.)
18,CAATTTTCGCCGTCTTTGCAAGCAAACGCACGCAAGCGACCGGAGTCACCTAGTGCAG,8760 fluorescence intensity (a.u.)
19,GATCGATAGTTGCACGTTCTGACACATGTCATCTGTACCGCGGAGTCACCTAGTGCAG,8920 fluorescence intensity (a.u.)
20,GCTGATTTCAAACAATGTAGGTAAAGGTTGTAGGGTTCATCGGAGTCACCTAGTGCAG,9030 fluorescence intensity (a.u.)
21,GCTTCCCCGTCACTCCCACTATTTCCCACTCGTCGCCGGCCGGAGTCACCTAGTGCAG,8280 fluorescence intensity (a.u.)

# Look-ups from the entries so far.
# Entry of CGTTGTCGCCGGCGATCTCTCTTCACCTGCTCCGGCCGCTCGGAGTCACCTAGTGCAG under binding signal: 11900 fluorescence intensity (a.u.)
# Entry of CTTTTTTTTTTTTTGCTCGCTCTCTCGCACCGCATTTATTCGGAGTCACCTAGTGCAG under binding signal: 8640 fluorescence intensity (a.u.)

# The results go on:

row,Sequence,binding signal
1,CACCTGTCATACACACGTTACGTCTTGGAGTCCGTGCTATCGGAGTCACCTAGTGCAG,9360 fluorescence intensity (a.u.)
2,TCTTTTGCTTCTGTTCTGCACCGGTCTCTCTGATGGATGTCGGAGTCACCTAGTGCAG,9680 fluorescence intensity (a.u.)
3,TTGACATGCTAACTTGGCCATGTTCACCGCCGAAGCTCGCCGGAGTCACCTAGTGCAG,9010 fluorescence intensity (a.u.)
4,TTCCCCATAGCCCTTGTATTTCTCTAATGCATTCATATTGCGGAGTCACCTAGTGCAG,12600 fluorescence intensity (a.u.)
5,GACGGGCTGGAGTTAAAATTTTGTATTTACTCTTTTTTTTCGGAGTCACCTAGTGCAG,9300 fluorescence intensity (a.u.)
6,CCCCACATATCAGCCTGTCCAGTCTCCTCTCTCTTTCCCCCGGAGTCACCTAGTGCAG,8400 fluorescence intensity (a.u.)
7,ACCTCCGCGTCCGGCAGCCGCCTCGTCCTCAACCGCCTCCCGGAGTCACCTAGTGCAG,9240 fluorescence intensity (a.u.)
8,GTGTTTTTTCTTCATTTGTCCCGTAATAAATTTATTTTTTCGGAGTCACCTAGTGCAG,12500 fluorescence intensity (a.u.)
9,TTGTTTTTATTCAGGGTATAGTCTATTTATTTATTTTCTTCGGAGTCACCTAGTGCAG,8110 fluorescence intensity (a.u.)
10,CCTCCTTTTTTCTTGTTTGGCTCCATTTGTAAATACTCTTCGGAGTCACCTAGTGCAG,12100 fluorescence intensity (a.u.)
11,CGGTGCTGAGTCGTCATCAGTTGATGTTCTCACGAATTCGCGGAGTCACCTAGTGCAG,8250 fluorescence intensity (a.u.)
12,TAGTGGACGGCGGGATTTTGGCGATTTCAGTGTCTACAAGCGGAGTCACCTAGTGCAG,9380 fluorescence intensity (a.u.)
13,AAATATTTGACGCCGTTGACTTTTTTAAATATGTTTAACCCGGAGTCACCTAGTGCAG,27200 fluorescence intensity (a.u.)
14,ATTAACTAATTAATTCGTACTTTTGCTTTTTATTATTTTTCGGAGTCACCTAGTGCAG,10000 fluorescence intensity (a.u.)
15,TCTCGGTGAACAGGGGCCGCGGCTGGCGGGCGGCGGGCGGCGGAGTCACCTAGTGCAG,9470 fluorescence intensity (a.u.)
16,GCCTCATCTTCTGGCGCTTCTATGGGTATATTACTCTAATCGGAGTCACCTAGTGCAG,9580 fluorescence intensity (a.u.)
17,CTCGCCGCCCGCCTATTTCACGCCGCCGCGCCGCGCAGACCGGAGTCACCTAGTGCAG,9860 fluorescence intensity (a.u.)
18,GAGTTCAGGATCAATCAGTTTGACCAACCAAACAACTTCACGGAGTCACCTAGTGCAG,8120 fluorescence intensity (a.u.)
19,GACGCTCCGGATCAATCCACGTTGGCATGGCTTCCCCGCACGGAGTCACCTAGTGCAG,9190 fluorescence intensity (a.u.)
20,TCGAGGTTTCTCACCTCCACCGGTTCCATCTCATCTCATGCGGAGTCACCTAGTGCAG,9960 fluorescence intensity (a.u.)
21,ACCACCACCCGCAGATCTCCGCCTCGGCGCCATTGCCCACCGGAGTCACCTAGTGCAG,10500 fluorescence intensity (a.u.)

# — paper PMC7819943, “Rice protein-binding microarrays: a tool to detect cis-acting elements near promoter regions in rice”
